Results are given in words; binding and its absence hold for the method and conditions named. Binding seen in cells or lysates may run through a third protein. Here binding means that the protein was enriched with, or labelled near, the bait; the list need not be complete.
B1: fibrillarin (FBL) (protein, UniProt P22087 1-321)
chain: MKPGFSPRGGGFGGRGGFGDRGGRGGRGGFGGGRGRGGGFRGRGRGGGGGGGGGGGGGRGGGGFHSGGNRGRGRGGKRGNQSGKNVMVEPHRHEGVFICRGKEDALVTKNLVPGESVYGEKRVSISEGDDKIEYRAWNPFRSKLAAAILGGVDQIHIKPGAKVLYLGAASGTTVSHVSDIVGPDGLVYAVEFSHRSGRDLINLAKKRTNIIPVIEDARHPHKYRMLIAMVDVIFADVAQPDQTRIVALNAHTFLRNGGHFVISIKANCIDSTASAEAVFASEVKKMQQENMKPQEQLTLEPYERDHAVVVGVYRPPPKVKN

Protein sequences, listed by entry. Tags and fused reporters are not part of them.
UniProt Q9NRC8: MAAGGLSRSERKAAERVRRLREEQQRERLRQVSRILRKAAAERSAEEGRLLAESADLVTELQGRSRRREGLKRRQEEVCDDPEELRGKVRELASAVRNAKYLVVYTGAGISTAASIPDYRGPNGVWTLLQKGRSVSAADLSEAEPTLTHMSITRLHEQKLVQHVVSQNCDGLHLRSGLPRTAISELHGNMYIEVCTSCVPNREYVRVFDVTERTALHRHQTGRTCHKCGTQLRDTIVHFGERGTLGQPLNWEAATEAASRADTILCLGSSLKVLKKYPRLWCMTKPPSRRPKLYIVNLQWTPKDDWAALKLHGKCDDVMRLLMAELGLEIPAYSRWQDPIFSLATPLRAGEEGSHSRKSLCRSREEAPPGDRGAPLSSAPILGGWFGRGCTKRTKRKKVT
UniProt Q13263: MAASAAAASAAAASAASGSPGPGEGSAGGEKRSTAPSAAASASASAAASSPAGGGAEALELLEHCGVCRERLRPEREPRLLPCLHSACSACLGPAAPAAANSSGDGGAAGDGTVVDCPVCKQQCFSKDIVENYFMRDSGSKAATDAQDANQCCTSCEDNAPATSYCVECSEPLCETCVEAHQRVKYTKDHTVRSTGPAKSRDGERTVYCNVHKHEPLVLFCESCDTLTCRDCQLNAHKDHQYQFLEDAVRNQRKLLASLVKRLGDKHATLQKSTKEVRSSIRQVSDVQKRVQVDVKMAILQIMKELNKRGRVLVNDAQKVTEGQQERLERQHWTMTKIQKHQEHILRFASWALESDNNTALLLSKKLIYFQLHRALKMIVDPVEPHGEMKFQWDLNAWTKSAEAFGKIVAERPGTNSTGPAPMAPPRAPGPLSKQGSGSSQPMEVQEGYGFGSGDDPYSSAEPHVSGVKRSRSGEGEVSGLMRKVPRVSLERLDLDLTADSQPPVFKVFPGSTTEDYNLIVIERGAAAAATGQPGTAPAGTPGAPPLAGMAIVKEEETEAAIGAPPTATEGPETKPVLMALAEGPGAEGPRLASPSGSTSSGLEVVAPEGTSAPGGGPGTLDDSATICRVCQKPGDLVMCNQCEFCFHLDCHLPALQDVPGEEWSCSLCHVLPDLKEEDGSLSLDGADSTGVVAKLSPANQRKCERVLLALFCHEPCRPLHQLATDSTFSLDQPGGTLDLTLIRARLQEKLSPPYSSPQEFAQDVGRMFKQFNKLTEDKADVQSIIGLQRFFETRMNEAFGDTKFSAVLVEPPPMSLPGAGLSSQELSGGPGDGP
UniProt Q14739: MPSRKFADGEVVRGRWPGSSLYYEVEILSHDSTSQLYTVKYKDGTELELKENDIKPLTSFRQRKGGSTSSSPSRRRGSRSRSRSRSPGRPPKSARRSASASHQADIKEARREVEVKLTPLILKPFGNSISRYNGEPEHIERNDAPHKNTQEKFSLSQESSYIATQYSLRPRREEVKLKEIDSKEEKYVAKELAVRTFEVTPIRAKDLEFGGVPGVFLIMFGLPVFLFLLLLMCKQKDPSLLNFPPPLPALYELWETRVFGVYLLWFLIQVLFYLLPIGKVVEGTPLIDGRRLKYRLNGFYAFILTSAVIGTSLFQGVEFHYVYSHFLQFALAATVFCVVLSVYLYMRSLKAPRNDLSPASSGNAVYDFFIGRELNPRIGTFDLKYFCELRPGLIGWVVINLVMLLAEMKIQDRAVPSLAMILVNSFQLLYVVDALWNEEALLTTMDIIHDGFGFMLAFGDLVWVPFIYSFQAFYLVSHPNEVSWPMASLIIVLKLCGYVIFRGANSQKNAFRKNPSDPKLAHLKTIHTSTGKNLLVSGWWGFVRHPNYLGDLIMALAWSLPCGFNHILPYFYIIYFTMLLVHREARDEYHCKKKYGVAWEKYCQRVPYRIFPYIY

Biological target: Flag-tagged SIRT7 (UniProt Q9NRC8)
Assay: affinity purification with mass spectrometry; Flag-SIRT7 expressed in HEK293T cells, IP with anti-Flag antibody, eluates separated by SDS-PAGE, bands analysed by LC-MS/MS; Flag-Luc as control

binding, binds:
heterochromatin protein KAP1 (from UniProt Q13263 1-835)
nuclear lamina protein LBR (from UniProt Q14739 1-615)
B1

— article PMC7305295
